Test results: paper PMC8317927 (Journal of Enzyme Inhibition and Medicinal Chemistry, 2021)

Test system: HAase protein
Experiment: Circular dichroism measurement of HAase secondary structure
Set-up: species or system bovine
Conditions: far-UV CD, HAase 0.2 mg/mL, samples at 10 and 20 μg/mL; for α-helix content of HAase protein after co-incubation: HAase alone 35.4%; for random coil content of HAase protein after co-incubation: HAase alone 39.3%

Row | SMILES | α-helix content of HAase protein after co-incubation [%] | random coil content of HAase protein after co-incubation [%]
1 | CC1(C)CCC2(C(=O)O)CCC3(C)C(=CCC4C5(C)Cc6c([nH]c7c(F)cc(F)cc67)C(C)(C)C5CCC43C)C2C1 (stereo not shown) [Compound 6c] | 26.1 | 42.5
2 | CC1(C)CCC2(C(=O)O)CCC3(C)C(=CCC4C5(C)Cc6c([nH]c7c(Cl)cccc67)C(C)(C)C5CCC43C)C2C1 (stereo not shown) [Compound 6g] | 29.8 | 44.7
